Test results as given in patent US20090105149A1, “Compounds comprising lpa” (ENKAM PHARMACEUTICALS A/S, priority 2003, published 2009).
For part of these data: At least one compound was matched to its structure with a doubt left. Some results were stated once for a whole list of compounds, not compound by compound.

How the values were obtained:
Format in all cases: cell-based, rat
[1] = system: FGL-induced neurite outgrowth in CGN cultures; assay: Effect of inhibitors of FGFR, MEK and PI3K on FGL-induced neurite outgrowth in CGN; settings: data not shown
Procedure: CGN cultures were grown for 24 hours at a density of 10,000 cells/cm^2 on 8-well permanox slides in the presence of the FGL peptide and an inhibitor. PD98059 ([…]) was added at concentrations of 12.5, 25 and 50 μM simultaneously with 10 μg/ml FGLd; LY294002 (▴) was added at concentrations of 3.5, 7 and 10 μM simultaneously with 27 μg/ml FGLd. SU5402 (▪) was added in concentrations of 20, 40 and 80 μM simultaneously with 27 μg/ml FGLd. After the treatment cells were fixed and immunostained for GAP-43. Results from at least four independent experiments are shown as percentage ±SEM, with FGLd-treated control cultures set at 100%. The dashed line indicates the average neurite length in cultures without FGLd-treatment. *p<0.05, **p<0.01 when compared to the FGLd-treated controls.
Peptide solutions without or with inhibitors of various signal transduction pathways were added to a total volume of 300 μl/cm^2, and the slides were incubated at 37° C. […] Images of at least 200 neurons for each group in each individual experiment were obtained systematically by using computer assisted fluorescence microscopy as previously described (Rønn et al., 2000 op. cit.). […] The same software package as described above for the dopaminergic neurite outgrowth assay was used to process the recorded images.

[2] = system: FGL-induced survival of CGN; assay: Effect of inhibitors of FGFR, MEK and PI3K on FGL-induced survival of CGN; settings: 3.5 μM inhibitor; 10 μg/ml FGLd; low KCl
Procedure: Thereafter the MEK inhibitor PD98059 ([…]), PI3K inhibitor LY294002 (▴) and FGFR inhibitor SU5402 (▪) were added at various concentrations. The addition of the inhibitors followed in all cases by the addition of 10 μg/ml FGLd. […] Results from at least four individual experiments are shown as percentage of the number of live neurons relative to the total number of neurons ±SEM, with control cultures treated with FGLd set at 100%.

hippocampal neurons = assay: Neurite outgrowth, hippocampal neurons; settings: conclusion from Examples 2-3
Procedure: The cultures were subsequently immunostained for tyrosine hydroxylase. Hippocampal neurons and CGN were plated at a density of 10,000 cells/cm^2 on 8-well permanox chamber slides and incubated for 24 hours in the presence of various concentrations of FGLd. Subsequently the neurons were immunostained for GAP-43. Results from at least five independent experiments for each neuronal culture are shown as percentage ±SEM with the untreated controls set at 100%. *p<0.05, **p<0.01, ***p<0.001 when compared to the controls.
Results from at least four independent experiments are shown as percentage SEM with untreated controls set at 100%. **p<0.01 when compared to the controls.
Peptide solutions without or with inhibitors of various signal transduction pathways were added to a total volume of 300 μl/cm^2, and the slides were incubated at 37° C. After 24 hours, the neurons were fixed with 4% (v/v) formaldehyde for 20 minutes and thereafter immunostained using primary rabbit antibodies against GAP-43 and Alexa Fluor secondary goat anti-rabbit antibodies. Images of at least 200 neurons for each group in each individual experiment were obtained systematically by using computer assisted fluorescence microscopy as previously described (Rønn et al., 2000 op. cit.). […] The same software package as described above for the dopaminergic neurite outgrowth assay was used to process the recorded images.

Row | Compound | effect on neurite outgrowth in control CGN cultures not treated with FGLd [1] | inhibition of FGLd-induced survival of CGN [2] | potency in promotion of neurite outgrowth relative to FGLm (hippocampal neurons)
1 | O=c1cc(N2CCOCC2)oc2c(-c3ccccc3)cccc12 [LY294002] | without significant effect on neurite outgrowth | inhibited FGLd-induced cell survival significantly | 
2 | FGLd: MAP-type dendrimer of FGL; dendrimeric tetramer of the FGL peptide (EVYVVAENQQGKSKA) |  |  | > 200 times
